Experimental data: US20240294644A1
Results are given in words; binding and its absence hold for the method and conditions named. Some entries that bind do so weakly or less than the wild type.

Key:
[1] = biological target: cynomolgus monkey VTCN1 expressed on 293 cells (cynomolgus monkey); assay: flow cytometry on 293-VTCN1 (monkey) cells
[2] = biological target: cynomolgus monkey VTCN1 expressed on 293 cells (cynomolgus monkey); assay: flow cytometry, titration 0.03-100 nM on 293-cynoVTCN1 cells
[3] = biological target: cynomolgus monkey VTCN1 expressed on 293 cells (cynomolgus monkey); assay: flow cytometry of serially diluted antibody on 293-cynoVTCN1 cells, dye-labelled secondary antibody, MFI
[4] = biological target: T1, VTCN1 IgV domain only construct expressed on 293 cells (human) (UniProt Q7Z7D3); assay: FACS on 293-VTCN1-IgV domain expressing cells
T1 sequence: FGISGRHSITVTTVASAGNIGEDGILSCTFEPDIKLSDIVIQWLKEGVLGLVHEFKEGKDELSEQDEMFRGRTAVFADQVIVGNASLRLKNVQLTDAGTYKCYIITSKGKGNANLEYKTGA

[5] = biological target: cynomolgus monkey VTCN1 expressed on 293 cells (cynomolgus monkey); assay: FACS of serially diluted antibodies on 293-cynoVTCN1 cells
[6] = biological target: T2, mouse VTCN1 expressed on 293 cells (mouse) (UniProt Q7TSP5); assay: flow cytometry, titration 0.03-100 nM on 293-mouse VTCN1 cells
T2 sequence (looked up): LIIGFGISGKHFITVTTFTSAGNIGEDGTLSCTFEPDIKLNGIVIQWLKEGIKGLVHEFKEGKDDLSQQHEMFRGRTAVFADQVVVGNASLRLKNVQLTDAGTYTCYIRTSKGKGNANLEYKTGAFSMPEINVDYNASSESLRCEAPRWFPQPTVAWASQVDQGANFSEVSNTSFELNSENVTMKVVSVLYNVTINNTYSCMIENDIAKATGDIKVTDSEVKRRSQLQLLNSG

[7] = biological target: T2, mouse VTCN1 expressed on 293 cells (mouse); assay: flow cytometry of serially diluted antibody on 293-mouseVTCN1 cells, dye-labelled secondary antibody, MFI
[8] = biological target: human VTCN1 expressed on cells (293-VTCN1 cells; SKBR3, MX-1 and ZR-75-1 cells that express it naturally) (human) (UniProt Q7Z7D3); assay: flow cytometry of serially diluted antibody on SKBR3 cells (natural VTCN1), dye-labelled secondary antibody, MFI
[9] = biological target: T2, mouse VTCN1 expressed on 293 cells (mouse); assay: FACS of serially diluted antibodies on 293 mouseVTCN1 cells
[10] = biological target: human VTCN1 expressed on cells (293-VTCN1 cells; SKBR3, MX-1 and ZR-75-1 cells that express it naturally) (human) (UniProt Q7Z7D3); assay: flow cytometry, titration 0.03-100 nM on 293-human VTCN1 and SKBR3 cells
[11] = biological target: human VTCN1 expressed on cells (293-VTCN1 cells; SKBR3, MX-1 and ZR-75-1 cells that express it naturally) (human) (UniProt Q7Z7D3); assay: FACS of serially diluted antibodies on 293-humanVTCN1 and SKBR3 cells
[12] = biological target: human VTCN1 expressed on cells (293-VTCN1 cells; SKBR3, MX-1 and ZR-75-1 cells that express it naturally) (human) (UniProt Q7Z7D3); assay: flow cytometry of serially diluted antibody on 293-humanVTCN1 cells, dye-labelled secondary antibody, MFI

Measured: binding

B1: 7C8 (antibody, V domains shown)
VH: QVQLQESGPGLVKPSETLSLTCAVSGYSISSGYYWGWIRQPPGKGLEWIGSIYHSGTTYYNPSLKSRVTISVDTSKNQFSLKLNSVTAADTAVYYCATYSSGWYFYFDYWGQGTLVTVSS
VL: DIQLTQSPSFLSASVGDRVTITCRASQGISSYLAWYQQKPGKAPKLLIYVASTLQSGVPSRFSGSGSGTEFTLTISSLQPEDFATYYCQQLNSYPITFGQGTRLEIK
binds: [1]

B2: 4C7_63A1 (antibody, V domains shown)
VH: QVQLQESGPGLVKPSGTLSLTCAVSGGSISSSNWWSWVRQPPGKGLEAIGEIYHSGNTNYNPSLKSRVTISVDKSKNQFSLKLSSVTAADTAIYYCARDGYSSGWYWGYFDYWGQGTLVTVSS
VL: EIVMTQSPATLSVSPGERATLSCRASQSVNSNLAWYQQKPGQAPWLLIYGASTRATGIPARFSGSGSGTEFTLTISSLQSEDFAVYYCQQYNHWPYTFGQGTKLEIK
binds: [2] | [3] | [4] | [5]

B3: 12B5_44B1 (antibody, V domains shown)
VH: QVQLVQSGAEVKKPGSSMKVSCKASGDTFSSYAISWVRQAPGQGLEWMAGIIPVFGTAHNAQKFQGRVTITADKSTSTAYMELSSLRSEDTAVYYCTRGGPYFDYWGQGTLVTVSS
VL: EIVMTQSPATLSVSPGERAALSCRASQSVSSNLAWYQQKPGQAPRLLIYGVSTRATGIPDRFNGSGSGTEFTLTISSLQSEDFGAYYCQQYKKWPFIFGPGTKLEIK
not listed: [1]
binds: all other assays above

B4: hu6D9_57A5 (antibody, V domains shown)
VH: QVQLVESGGGVVQPGRSLRLSCAVSGFSLTSYGVQWVRQAPGKGLEWLAVIWSSGSTDYNAAFLSRLTISKDNSKNTVYFQMNSLRAEDTAVYYCARDVTTIVEGFAHWGQGTLVTVSS
VL: DIQMTQSPSSLSASVGDRVTITCKASEKVGTYVSWYQQKPGKAPKLLIYGASNRYTGVPSRFSGSGSGTDFTLTISSLQPEDFATYYCGQTYSYPFTFGQGTKLEIK
binds: [3]
